Measured values: the supplement of paper PMC12819154, “High-throughput peptide-centric local stability assay extends protein–ligand identification to membrane proteins, tissues and bacteria” (Nature Structural & Molecular Biology, 2025)
This is one part of the list. Small differences around the control level are noise.

The chains behind the UniProt entries cited, without tags or fusion partners. Where a name states a change or a piece, a line headed by the entry shows the natural chain unless it says otherwise.
UniProt Q8IZP2: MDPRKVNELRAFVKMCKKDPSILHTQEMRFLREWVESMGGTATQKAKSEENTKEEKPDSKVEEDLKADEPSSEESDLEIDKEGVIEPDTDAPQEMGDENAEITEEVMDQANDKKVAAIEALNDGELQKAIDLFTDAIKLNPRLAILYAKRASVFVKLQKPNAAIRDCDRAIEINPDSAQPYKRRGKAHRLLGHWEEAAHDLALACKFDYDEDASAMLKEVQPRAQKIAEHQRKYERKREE
UniProt Q86VP6: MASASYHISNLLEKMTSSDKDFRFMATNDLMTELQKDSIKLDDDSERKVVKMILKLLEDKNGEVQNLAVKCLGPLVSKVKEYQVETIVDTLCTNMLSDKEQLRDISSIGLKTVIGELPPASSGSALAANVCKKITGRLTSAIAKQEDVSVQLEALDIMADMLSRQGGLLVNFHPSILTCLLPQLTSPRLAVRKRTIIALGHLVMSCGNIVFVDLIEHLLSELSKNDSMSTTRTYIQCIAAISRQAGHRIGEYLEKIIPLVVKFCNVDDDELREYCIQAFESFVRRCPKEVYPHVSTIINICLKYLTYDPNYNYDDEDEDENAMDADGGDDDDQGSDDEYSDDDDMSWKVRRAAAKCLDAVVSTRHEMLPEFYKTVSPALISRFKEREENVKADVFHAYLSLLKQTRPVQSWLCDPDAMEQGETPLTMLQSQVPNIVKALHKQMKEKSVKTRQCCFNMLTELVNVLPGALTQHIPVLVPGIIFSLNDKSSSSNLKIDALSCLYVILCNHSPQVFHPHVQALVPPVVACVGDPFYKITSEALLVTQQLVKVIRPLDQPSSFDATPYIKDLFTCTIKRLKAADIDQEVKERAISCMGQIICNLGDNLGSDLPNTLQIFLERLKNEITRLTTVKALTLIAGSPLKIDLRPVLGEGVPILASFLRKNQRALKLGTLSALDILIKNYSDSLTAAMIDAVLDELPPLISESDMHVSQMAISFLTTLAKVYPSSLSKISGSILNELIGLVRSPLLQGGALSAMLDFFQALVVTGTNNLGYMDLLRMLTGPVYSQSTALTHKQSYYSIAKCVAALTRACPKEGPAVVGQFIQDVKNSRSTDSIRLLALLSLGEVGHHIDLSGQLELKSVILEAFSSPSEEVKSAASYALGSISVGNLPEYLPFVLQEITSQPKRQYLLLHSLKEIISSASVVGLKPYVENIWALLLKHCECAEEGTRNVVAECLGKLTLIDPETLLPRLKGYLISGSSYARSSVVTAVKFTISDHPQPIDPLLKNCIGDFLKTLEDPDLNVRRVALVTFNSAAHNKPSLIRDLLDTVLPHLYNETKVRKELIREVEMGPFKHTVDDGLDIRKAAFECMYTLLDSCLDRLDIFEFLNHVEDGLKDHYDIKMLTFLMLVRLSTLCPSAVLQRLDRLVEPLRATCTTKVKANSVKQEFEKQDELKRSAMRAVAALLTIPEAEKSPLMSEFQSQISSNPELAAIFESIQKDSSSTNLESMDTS
UniProt Q8IZ07: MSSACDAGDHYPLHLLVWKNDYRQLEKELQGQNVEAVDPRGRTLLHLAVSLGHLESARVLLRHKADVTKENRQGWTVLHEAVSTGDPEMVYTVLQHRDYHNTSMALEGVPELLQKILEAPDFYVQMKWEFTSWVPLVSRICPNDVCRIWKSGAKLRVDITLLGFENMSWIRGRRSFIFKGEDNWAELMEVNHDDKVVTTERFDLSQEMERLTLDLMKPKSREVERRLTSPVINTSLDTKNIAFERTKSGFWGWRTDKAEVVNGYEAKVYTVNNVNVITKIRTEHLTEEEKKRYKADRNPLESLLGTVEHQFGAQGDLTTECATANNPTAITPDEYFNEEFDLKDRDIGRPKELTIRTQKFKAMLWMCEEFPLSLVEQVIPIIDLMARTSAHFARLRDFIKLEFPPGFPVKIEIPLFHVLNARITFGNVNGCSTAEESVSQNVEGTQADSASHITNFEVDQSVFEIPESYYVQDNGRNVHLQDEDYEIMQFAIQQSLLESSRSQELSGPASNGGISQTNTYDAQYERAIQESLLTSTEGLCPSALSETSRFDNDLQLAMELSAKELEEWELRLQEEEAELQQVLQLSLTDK
UniProt Q8IYL3: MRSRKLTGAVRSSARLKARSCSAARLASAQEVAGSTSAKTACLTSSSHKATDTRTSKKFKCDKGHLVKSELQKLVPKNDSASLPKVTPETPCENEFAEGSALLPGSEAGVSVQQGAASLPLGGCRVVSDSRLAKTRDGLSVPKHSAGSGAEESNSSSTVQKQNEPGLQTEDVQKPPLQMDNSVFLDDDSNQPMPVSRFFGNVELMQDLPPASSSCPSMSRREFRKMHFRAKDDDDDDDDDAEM
UniProt Q8IWD4: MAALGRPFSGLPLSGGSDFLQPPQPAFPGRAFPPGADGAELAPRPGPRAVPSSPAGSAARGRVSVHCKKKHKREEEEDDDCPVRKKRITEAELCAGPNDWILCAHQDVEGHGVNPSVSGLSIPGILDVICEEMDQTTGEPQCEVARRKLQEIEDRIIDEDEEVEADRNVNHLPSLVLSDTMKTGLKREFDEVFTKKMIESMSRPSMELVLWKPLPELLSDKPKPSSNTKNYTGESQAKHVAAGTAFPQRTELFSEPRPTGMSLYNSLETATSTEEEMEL
UniProt Q8IZM8: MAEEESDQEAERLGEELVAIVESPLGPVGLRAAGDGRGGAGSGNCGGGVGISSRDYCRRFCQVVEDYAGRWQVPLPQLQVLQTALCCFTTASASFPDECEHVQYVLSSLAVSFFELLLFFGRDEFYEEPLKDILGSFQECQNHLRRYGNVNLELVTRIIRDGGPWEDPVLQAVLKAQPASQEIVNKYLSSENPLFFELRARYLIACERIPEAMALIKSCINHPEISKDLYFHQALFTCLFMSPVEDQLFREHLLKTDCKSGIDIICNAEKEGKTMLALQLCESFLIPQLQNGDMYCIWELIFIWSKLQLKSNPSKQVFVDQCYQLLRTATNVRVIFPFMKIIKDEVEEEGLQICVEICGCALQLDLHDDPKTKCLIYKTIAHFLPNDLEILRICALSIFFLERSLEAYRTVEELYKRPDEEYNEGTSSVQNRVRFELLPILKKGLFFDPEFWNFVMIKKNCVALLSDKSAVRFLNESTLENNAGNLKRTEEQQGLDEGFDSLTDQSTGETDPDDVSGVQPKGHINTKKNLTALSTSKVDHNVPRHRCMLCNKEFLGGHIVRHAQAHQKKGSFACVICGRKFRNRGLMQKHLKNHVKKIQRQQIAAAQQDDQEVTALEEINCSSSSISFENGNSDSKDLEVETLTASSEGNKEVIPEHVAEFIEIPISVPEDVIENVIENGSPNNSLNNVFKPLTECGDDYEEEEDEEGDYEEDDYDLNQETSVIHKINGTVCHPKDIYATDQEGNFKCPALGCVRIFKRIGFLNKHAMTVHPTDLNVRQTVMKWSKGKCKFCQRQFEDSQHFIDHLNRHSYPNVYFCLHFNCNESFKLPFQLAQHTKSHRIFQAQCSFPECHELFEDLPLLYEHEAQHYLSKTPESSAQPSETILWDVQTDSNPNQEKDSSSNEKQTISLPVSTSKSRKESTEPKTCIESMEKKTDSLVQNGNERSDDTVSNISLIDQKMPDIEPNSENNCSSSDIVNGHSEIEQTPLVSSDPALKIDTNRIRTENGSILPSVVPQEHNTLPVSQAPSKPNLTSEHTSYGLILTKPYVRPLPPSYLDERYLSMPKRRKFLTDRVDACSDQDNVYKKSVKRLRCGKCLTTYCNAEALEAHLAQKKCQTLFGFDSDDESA
UniProt Q86YR5: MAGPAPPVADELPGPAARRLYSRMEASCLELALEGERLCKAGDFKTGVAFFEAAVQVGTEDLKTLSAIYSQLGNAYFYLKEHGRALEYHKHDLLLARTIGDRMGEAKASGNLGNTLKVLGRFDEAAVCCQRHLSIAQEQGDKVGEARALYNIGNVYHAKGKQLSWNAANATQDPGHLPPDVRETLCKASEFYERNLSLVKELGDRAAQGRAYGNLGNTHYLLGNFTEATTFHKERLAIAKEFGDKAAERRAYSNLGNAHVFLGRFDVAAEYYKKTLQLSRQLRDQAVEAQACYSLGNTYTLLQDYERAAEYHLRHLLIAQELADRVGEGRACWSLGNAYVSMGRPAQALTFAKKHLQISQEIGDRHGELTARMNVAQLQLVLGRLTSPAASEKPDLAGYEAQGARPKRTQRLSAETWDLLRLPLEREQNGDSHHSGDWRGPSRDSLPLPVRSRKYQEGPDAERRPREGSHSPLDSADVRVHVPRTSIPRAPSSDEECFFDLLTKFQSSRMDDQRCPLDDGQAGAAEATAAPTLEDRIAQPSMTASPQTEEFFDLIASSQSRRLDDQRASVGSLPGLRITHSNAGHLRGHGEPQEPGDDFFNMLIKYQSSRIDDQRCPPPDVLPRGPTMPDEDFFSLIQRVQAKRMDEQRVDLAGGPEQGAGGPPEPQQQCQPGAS
UniProt Q86VK4: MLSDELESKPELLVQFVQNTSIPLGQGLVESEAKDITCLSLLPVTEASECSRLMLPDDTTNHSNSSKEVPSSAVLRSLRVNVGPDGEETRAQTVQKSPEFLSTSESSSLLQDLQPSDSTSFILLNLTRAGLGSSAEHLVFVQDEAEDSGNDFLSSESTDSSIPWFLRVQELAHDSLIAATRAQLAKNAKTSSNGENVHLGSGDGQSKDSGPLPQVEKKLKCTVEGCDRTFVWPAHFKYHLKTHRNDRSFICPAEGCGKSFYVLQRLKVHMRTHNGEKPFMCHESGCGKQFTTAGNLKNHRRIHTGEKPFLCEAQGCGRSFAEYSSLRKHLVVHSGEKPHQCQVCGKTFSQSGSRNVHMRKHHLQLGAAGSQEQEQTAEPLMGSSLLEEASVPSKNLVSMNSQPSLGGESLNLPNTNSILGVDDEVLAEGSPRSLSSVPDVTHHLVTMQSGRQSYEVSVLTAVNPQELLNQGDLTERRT
UniProt Q86VI3: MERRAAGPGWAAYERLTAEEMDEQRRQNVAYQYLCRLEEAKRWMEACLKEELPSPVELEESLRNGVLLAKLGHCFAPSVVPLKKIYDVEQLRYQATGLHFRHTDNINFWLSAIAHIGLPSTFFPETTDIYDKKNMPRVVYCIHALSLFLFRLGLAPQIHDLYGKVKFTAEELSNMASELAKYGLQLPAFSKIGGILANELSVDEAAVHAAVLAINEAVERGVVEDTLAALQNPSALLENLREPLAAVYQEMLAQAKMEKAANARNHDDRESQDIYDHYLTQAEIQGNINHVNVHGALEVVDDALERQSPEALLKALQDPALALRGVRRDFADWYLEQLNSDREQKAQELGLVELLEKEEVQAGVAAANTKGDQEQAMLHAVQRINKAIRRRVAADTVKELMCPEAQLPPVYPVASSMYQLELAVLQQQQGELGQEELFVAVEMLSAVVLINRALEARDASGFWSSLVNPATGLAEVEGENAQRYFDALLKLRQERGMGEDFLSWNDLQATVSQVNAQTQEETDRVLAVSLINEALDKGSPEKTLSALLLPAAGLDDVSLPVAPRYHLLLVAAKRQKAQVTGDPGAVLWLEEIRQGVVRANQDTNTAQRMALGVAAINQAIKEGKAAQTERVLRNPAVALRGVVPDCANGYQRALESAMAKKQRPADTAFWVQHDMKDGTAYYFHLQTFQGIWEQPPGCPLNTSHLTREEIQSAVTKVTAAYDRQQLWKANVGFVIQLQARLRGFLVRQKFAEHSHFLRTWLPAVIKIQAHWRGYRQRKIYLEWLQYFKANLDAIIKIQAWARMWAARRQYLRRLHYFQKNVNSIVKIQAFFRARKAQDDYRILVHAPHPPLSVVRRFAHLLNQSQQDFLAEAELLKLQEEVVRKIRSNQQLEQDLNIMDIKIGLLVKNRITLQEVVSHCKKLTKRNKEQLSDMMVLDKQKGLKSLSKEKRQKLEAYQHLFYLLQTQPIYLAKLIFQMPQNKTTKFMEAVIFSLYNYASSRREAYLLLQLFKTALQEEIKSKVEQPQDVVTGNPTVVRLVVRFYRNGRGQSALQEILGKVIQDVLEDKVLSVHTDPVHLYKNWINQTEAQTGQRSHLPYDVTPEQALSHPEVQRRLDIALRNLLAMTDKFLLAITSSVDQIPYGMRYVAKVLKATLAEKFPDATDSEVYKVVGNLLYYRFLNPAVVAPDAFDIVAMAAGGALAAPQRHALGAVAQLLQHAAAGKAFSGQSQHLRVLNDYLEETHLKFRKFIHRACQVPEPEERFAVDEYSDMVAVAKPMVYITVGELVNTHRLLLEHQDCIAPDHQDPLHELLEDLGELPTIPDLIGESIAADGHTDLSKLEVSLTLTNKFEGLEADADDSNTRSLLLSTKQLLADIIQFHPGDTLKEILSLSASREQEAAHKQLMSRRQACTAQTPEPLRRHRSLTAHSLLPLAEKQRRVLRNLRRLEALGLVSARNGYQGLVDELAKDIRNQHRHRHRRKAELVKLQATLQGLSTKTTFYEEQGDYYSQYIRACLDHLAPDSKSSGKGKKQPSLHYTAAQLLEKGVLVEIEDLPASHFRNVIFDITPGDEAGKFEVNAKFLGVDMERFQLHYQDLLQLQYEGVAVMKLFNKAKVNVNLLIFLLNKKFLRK

Compound: Cc1nc(Nc2ncc(C(=O)Nc3c(C)cccc3Cl)s2)cc(N2CCN(CCO)CC2)n1 [dasatinib]
Experiment: log2 fold change of tryptic peptide abundance, ligand vs vehicle (limited proteolysis) (log2 ratio); higher = more trypsin-susceptible (destabilized)
Settings: ligand concentration: 5 uM; sample: K562 cleared lysate

Target	log2 fold change
UniProt Q86XF0 (peptide sequence: MTTTSSVEGK, peptide start residue: 38)	0.0857
ST13P4 (peptide sequence: SEENTKEEKPDSK, peptide start residue: 51) (UniProt Q8IZP2)	0.136
UniProt Q8IYS0 (peptide sequence: SLLPTLEK, peptide start residue: 279)	0.0964
DHX40 (peptide sequence: SRDLQEER, peptide start residue: 21) (UniProt Q8IX18)	-0.387
FAM177A1 (peptide sequence: IASVLGISTPK, peptide start residue: 121) (UniProt Q8N128)	0.355
UniProt Q86X10 (peptide sequence: HRPFPEEVDKIPFVK, peptide start residue: 1025)	-0.264
N4BP2 (peptide sequence: HELSNFVGDWPVDK, peptide start residue: 782) (UniProt Q86UW6)	0.32
CNTROB (peptide sequence: SGHPAPSSMR, peptide start residue: 887) (UniProt Q8N137)	-0.186
TICAM1 (peptide sequence: ADEHIALR, peptide start residue: 404) (UniProt Q8IUC6)	-0.287
DDX42 (peptide sequence: VSYLVFDEADR, peptide start residue: 401) (UniProt Q86XP3)	-0.192
FAM114A1 (peptide sequence: SLLSSASATVGHGLTAVK, peptide start residue: 136) (UniProt Q8IWE2)	-0.367
ERI1 (peptide sequence: LTIMLEK, peptide start residue: 277) (UniProt Q8IV48)	0.326
CAND1 (peptide sequence: RVALVTFNSAAHNKPSLIR, peptide start residue: 1024) (UniProt Q86VP6)	-0.532
WDR75 (peptide sequence: VWILTDDSDIYKK, peptide start residue: 472) (UniProt Q8IWA0)	1.01
UniProt Q8N0S2 (peptide sequence: LKEELEK, peptide start residue: 278)	-0.212
APLF (peptide sequence: ATDSVLQGSEGNK, peptide start residue: 361) (UniProt Q8IW19)	0.329
NDUFAF2 (peptide sequence: TFQPGSWMPR, peptide start residue: 153) (UniProt Q8N183)	-0.167
TEX2 (peptide sequence: ATETEFIKK, peptide start residue: 1003) (UniProt Q8IWB9)	0.398
ZC3H3 (peptide sequence: LDPAGSCSR, peptide start residue: 637) (UniProt Q8IXZ2)	0.232

Looked up one by one from the list above:
Target	log2 fold change
UniProt Q86X10 (peptide sequence: HRPFPEEVDKIPFVK, peptide start residue: 1025)	-0.264
WDR75 (peptide sequence: VWILTDDSDIYKK, peptide start residue: 472) (UniProt Q8IWA0)	1.01

Continued.

Target	log2 fold change
THOC6 (peptide sequence: SSTPTTIFPIR, peptide start residue: 248) (UniProt Q86W42)	0.298
ANKRD13A (peptide sequence: ELEEWELR, peptide start residue: 564) (UniProt Q8IZ07)	0.0751
C1orf174 (peptide sequence: CDKGHLVK, peptide start residue: 61) (UniProt Q8IYL3)	-0.806
UniProt Q8IXX5 (peptide sequence: SLYHMYEPFAAR, peptide start residue: 206)	0.297
SPATS2 (peptide sequence: FTCDVETLKK, peptide start residue: 354) (UniProt Q86XZ4)	0.676
CCDC117 (peptide sequence: TELFSEPR, peptide start residue: 250) (UniProt Q8IWD4)	-0.28
UniProt Q8IZM8 (peptide sequence: IPEAMALIK, peptide start residue: 209)	-0.285
MAML2 (peptide sequence: HMDGQMTQENIFPNR, peptide start residue: 278) (UniProt Q8IZL2)	0.231
UniProt Q86YR5 (peptide sequence: KYQEGPDAER, peptide start residue: 454)	0.525
UniProt Q86Y56 (peptide sequence: CSLLDPFAAVRR, peptide start residue: 173)	0.158
NOSTRIN (peptide sequence: QVTSVLQQR, peptide start residue: 30) (UniProt Q8IVI9)	0.0985
ZNF410 (peptide sequence: LMLPDDTTNHSNSSK, peptide start residue: 53) (UniProt Q86VK4)	0.369
UniProt Q8IVE0 (peptide sequence: LQAAQEELR, peptide start residue: 629)	-0.229
UEVLD (peptide sequence: ITEGVSDTNSK, peptide start residue: 162) (UniProt Q8IX04)	0.0762
CKAP2L (peptide sequence: QLEEWQK, peptide start residue: 467) (UniProt Q8IYA6)	-0.43
MIB1 (peptide sequence: LQQQLQDIK, peptide start residue: 950) (UniProt Q86YT6)	-0.427
IQGAP3 (peptide sequence: ACQVPEPEER, peptide start residue: 1253) (UniProt Q86VI3)	-0.558
ZZZ3 (peptide sequence: SIAHPEEISSNSQVR, peptide start residue: 32) (UniProt Q8IYH5)	0.196
